# Source: the supplement of paper PMC3334620
# The full ranking holds about 33,000 sequences; the median of “E-score (-0.5 to 0.5)” is about -0.0059, and the highest 2% start at about 0.26. Some of the results follow.
# Target: T1, Cin5 (UniProt P40917)
# T1 sequence: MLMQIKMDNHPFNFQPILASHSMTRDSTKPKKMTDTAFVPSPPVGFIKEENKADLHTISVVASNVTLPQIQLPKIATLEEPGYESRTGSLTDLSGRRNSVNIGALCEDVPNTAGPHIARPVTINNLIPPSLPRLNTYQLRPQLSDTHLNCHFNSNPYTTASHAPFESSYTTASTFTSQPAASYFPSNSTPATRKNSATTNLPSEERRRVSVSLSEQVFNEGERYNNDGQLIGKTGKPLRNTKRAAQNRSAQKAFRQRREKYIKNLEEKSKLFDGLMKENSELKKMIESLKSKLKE
# Experiment: PBM E-score (8-mer binding enrichment) (E-score (-0.5 to 0.5)); higher = stronger / more preferred TF binding
# Settings: protein concentration: 100 nM; construct: GST-full length
# Method in brief: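 E-scores (a modified Wilcoxon-Mann-Whitney statistic) were assigned by the Universal PBM Analysis Suite to every ungapped eight-base word pooled with its reverse complement. The input came from universal all-10-mer Agilent arrays made double-stranded by primer extension and probed with GST-tagged yeast transcription factors at about 100-200 nM. Fluorescent anti-GST detected bound protein, and masliner normalised the scans.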
row,Sequence,PBM E-score
1,GGTACAGA,0.056
2,AAGCGCGG,0.0148
3,ATGAGGAA,0.118
4,CCAAGCGA,-0.0596
5,GTATGAGA,0.144
6,CATGCGGC,-0.0851
7,ATAGCAAA,0.0206
8,GCAAGCCC,-0.05
9,ATACTGCG,-0.0234
10,AGTCACAA,0.113
11,CATGGTCC,-0.195
12,CCCGACAC,-0.15
13,CAAGTTGG,0.138
14,ATCCCATA,0.0489
15,ACAAATTA,0.269
16,ATGGGTCA,-0.00802
17,AGTGCATA,-0.134
18,ATCTCCCC,-0.0993
19,CAACCATC,-0.138
20,GGTTCGAC,-0.0557
21,CAGAGAGC,-0.193
22,AACGGGCC,-0.0743
23,ACTACGCA,-0.169
24,AATGTGTC,0.181

row,Sequence,PBM E-score
1,CCATCCCA,-0.0377
2,TGACACAA,0.153
3,CGTTCTCA,-0.00334
4,CCCTTAGA,-0.0174
5,AGAATTAC,0.098
6,GCTAGAAA,0.158
7,CCAGACCA,-0.0619
8,GAATGTCA,0.0882
9,CTCACACA,-0.00376
10,ATGGGAGC,-0.0315
11,TAGCCATA,-0.0697
12,ACGCTAGC,-0.235
13,GATGCGCC,-0.0294
14,AAGAATTG,0.215
15,CAACTGGA,-0.0777
16,GACACACC,0.0393
17,TGAGCCAA,0.0379
18,CTATGCAC,-0.0651
19,ACCCAGTA,-0.146
20,AACCGTGG,-0.17
21,CCGCGCGC,0.0301
22,GCATAGAA,0.0234
23,CAAGCGAG,0.158
24,CATCCCCA,0.0398

row,Sequence,PBM E-score
1,AATAGAGA,-0.00888
2,ACGAACGG,0.0374
3,GTGGAGTA,0.0199
4,ACGTCTCG,-0.0923
5,CATTAATA,0.187
6,AGAGTCCC,-0.216
7,ATGTGCAC,-0.0957
8,AAGCAGCT,0.00585
9,CTGCTGCC,-0.124
10,ATCTCTTA,0.0999
11,GGTAGACA,0.0358
12,GTACATAA,0.189
13,TGTCGACA,-0.0626
14,AGGTGAAG,-0.0765
15,GCCGCCCC,-0.114
16,AAGGAATT,-0.0682
17,ATCGGCAA,-0.00239
18,ACTGCAGC,-0.101
19,ACCGCCAC,-0.0973
20,AAAGAGTC,-0.153
21,AAGTGTCT,-0.0697
22,ATTTACAG,-0.00107
23,ACAGATTC,0.122
24,GCACCGCA,-0.192

row,Sequence,PBM E-score
1,AGACGCCA,-0.182
2,GCGATCCA,0.0153
3,TACCTTCA,-0.0369
4,CCAGCCAG,-0.254
5,AGATATTA,0.168
6,GGACTGGA,-0.178
7,AGGCTATA,-0.161
8,CATGATCA,0.158
9,TAAGAGTA,0.0454
10,CTGCATTA,-0.154
11,CCAGAGGC,-0.221
12,CGACGCCC,0.0231
13,ACCTGGGG,-0.253
14,CCGCTTAA,0.103
15,CATCAGCC,0.0542
16,AATGAAAC,0.169
17,AACGCGGG,0.132
18,CACCGAGG,-0.17
19,GATCAAGA,0.0483
20,ACCCTGGG,-0.257
21,AAACTCGG,0.0178
22,ACCTCCTG,-0.24

# Copied from the list:
# CAGAGAGC – PBM E-score: -0.193
# GTATGAGA – PBM E-score: 0.144
# ACCTCCTG – PBM E-score: -0.24
